Laboratory results published in the supplement of paper PMC4683952.
Structures can show the parent of a compound that is named as a salt. Hit rate of the full screen: of about 1,200 compounds, about 50 (4%) showed activity. No stated cut-off is given here; in the data, all actives reach 1.3 or more but so do some inactives. The list shows a part of the results.

What follows are molecules tested on Lgr5 (MarsCy1-Lgr5-EGFP, U2OS) (assay: cell-surface Lgr5 expression (SCi1 fluorescence, background-subtracted) relative to WT DMSO (fold of DMSO control); higher = more Lgr5 at the plasma membrane, active = hit call of the paper). Settings: U2OS MarsCy1-Lgr5-EGFP stable; treatment time: overnight; 16 µM; library: Johns Hopkins Clinical Compound Library.

Which “cell-surface Lgr5 expression” value does the source give for `C[C@H](CCC(=O)NCCS(=O)(=O)O)[C@H]1CC[C@H]2[C@@H]3[C@H](O)C[C@@H]4C[C@H](O)CC[C@]4(C)[C@H]3C[C@H](O)[C@]12C` [Taurocholic acid, sodium salt hydrate] here?
Its value is inactive: 0.91.

Which “cell-surface Lgr5 expression” value does the source give for `O=C([O-])[C@H](O)[C@@H](O)[C@H](O)[C@H](O)CO.OC[C@H]1O[C@@](CO)(O[C@H]2O[C@H](CO)[C@@H](O)[C@H](O)[C@H]2O)[C@@H](O)[C@@H]1O.OC[C@H]1O[C@@](CO)(O[C@H]2O[C@H](CO)[C@@H](O)[C@H](O)[C@H]2O)[C@@H](O)[C@@H]1O.OC[C@H]1O[C@@](CO)(O[C@H]2O[C@H](CO)[C@@H](O)[C@H](O)[C@H]2O)[C@@H](O)[C@@H]1O.OC[C@H]1O[C@@](CO)(O[C@H]2O[C@H](CO)[C@@H](O)[C@H](O)[C@H]2O)[C@@H](O)[C@@H]1O.OC[C@H]1O[C@@](CO)(O[C@H]2O[C@H](CO)[C@@H](O)[C@H](O)[C@H]2O)[C@@H](O)[C@@H]1O.[Fe+3].[Fe+3].[Na+].[O-2].[O-2].[O-2]` [Sodium ferric gluconate] here?
The value was inactive: 0.511.

`CCOCCn1c(N2CCCN(C)CC2)nc2ccccc21` [Emedastine difumarate] was tested. Which “cell-surface Lgr5 expression” value did it give?
Its value is inactive: 1.01.

Which “cell-surface Lgr5 expression” value does the source give for `CC[C@H](C)C(=O)O[C@H]1C[C@H](O)C=C2C=C[C@H](C)[C@H](CC[C@@H](O)C[C@@H](O)CC(=O)O)[C@H]21` [Pravastatin sodium] here?
Its value is inactive: 0.955.

Which “cell-surface Lgr5 expression” value does the source give for `Cc1nccn1CC1CCc2c(c3ccccc3n2C)C1=O` (stereo not given) [Ondansetron HCl] here?
The value was inactive: 0.717.

Which “cell-surface Lgr5 expression” value does the source give for `Nc1c(/N=N/c2ccc(-c3ccc(/N=N/c4cc(S(=O)(=O)O)c5ccccc5c4N)cc3)cc2)cc(S(=O)(=O)O)c2ccccc12` [Congo red] here?
The value was inactive: 1.21.

`CC(=O)NC[C@H]1CN(c2ccc(N3CCOCC3)c(F)c2)C(=O)O1` [Linezolid] was tested. Which “cell-surface Lgr5 expression” value did it give?
The value was inactive: 0.862.

`COc1ccc2c(c1)c(CC(=O)OCC(=O)O)c(C)n2C(=O)c1ccc(Cl)cc1` [Acemetacin] was tested. Which “cell-surface Lgr5 expression” value did it give?
The value was inactive: 0.844.

For `COc1ccc2cc3[n+](cc2c1OC)CCc1cc2c(cc1-3)OCO2` [Berberine bisulfate], which “cell-surface Lgr5 expression” value is on record?
The value was inactive: 1.47.

How did the “cell-surface Lgr5 expression” value turn out when `COc1ccc2cc3[n+](cc2c1OC)CCc1cc2c(cc1-3)OCO2` [Berberine] was run?
Its value is active: 1.64.

Which “cell-surface Lgr5 expression” value does the source give for `O=C1CC[C@@](c2ccccc2)(C2CCN(Cc3ccccc3)CC2)C(=O)N1` [Dexetimide] here?
The value was inactive: 1.08.

For `Nc1nnc(-c2cccc(Cl)c2Cl)c(N)n1` [Lamotrigine], which “cell-surface Lgr5 expression” value is on record?
Its value is inactive: 1.08.

`Nc1nc(=O)[nH]cc1F` [Flucytosine (5-Fluorocytosine)] was tested. Which “cell-surface Lgr5 expression” value did it give?
The value was inactive: 0.748.

With `NC[C@H]1O[C@H](O[C@H]2[C@H](O)[C@@H](O[C@H]3O[C@H](CO)[C@@H](O)[C@H](N)[C@H]3O)[C@H](N)C[C@@H]2N)[C@H](N)[C@@H](O)[C@@H]1O` [Kanamycin B sulfate salt] as the molecule, how does the “cell-surface Lgr5 expression” value read?
The value was inactive: 0.875.

`CC(=O)O[C@]1(C(C)=O)CC[C@H]2[C@@H]3C=C(C)C4=CC(=O)CC[C@]4(C)[C@H]3CC[C@@]21C` [Megestrol Acetate] was tested. Which “cell-surface Lgr5 expression” value did it give?
Its value is inactive: 1.29.

With `Cc1ccc(C(C)C)c(O)c1` [Thymol] as the molecule, how does the “cell-surface Lgr5 expression” value read?
The value was inactive: 1.24.

`CC(=O)[O-].CC(=O)[O-].O.O.[Zn+2]` [Zinc acetate] was tested. Which “cell-surface Lgr5 expression” value did it give?
Its value is inactive: 0.705.

How did the “cell-surface Lgr5 expression” value turn out when `Cc1cc(OI)c(C(C)C)cc1-c1cc(C(C)C)c(OI)cc1C` [Thymol iodide] was run?
Its value is inactive: 1.11.

With `C[C@@H]1O[C@@H](OC[C@H]2O[C@@H](Oc3c(-c4ccc(O)c(O)c4)oc4cc(O)cc(O)c4c3=O)[C@H](O)[C@@H](O)[C@@H]2O)[C@H](O)[C@H](O)[C@H]1O` [Rutin trihydrate] as the molecule, how does the “cell-surface Lgr5 expression” value read?
Its value is inactive: 0.995.

For `O=[N+]([O-])c1ccc(O)cc1` [4-Nitrophenol], which “cell-surface Lgr5 expression” value is on record?
Its value is inactive: 1.17.

For `CN1[C@@H]2CC[C@H]1C[C@@H](OC(c1ccccc1)c1ccccc1)C2` [Benztropine Methane-Sulfonate], which “cell-surface Lgr5 expression” value is on record?
The value was inactive: 0.629.

`CN1[C@@H]2CC[C@H]1C[C@@H](OC(c1ccccc1)c1ccccc1)C2` [Benztropine mesylate] was tested. Which “cell-surface Lgr5 expression” value did it give?
Its value is inactive: 0.565.

How did the “cell-surface Lgr5 expression” value turn out when `CO[C@H]1O[C@H](COS(=O)(=O)O)[C@@H](O[C@@H]2O[C@@H](C(=O)O)[C@@H](O[C@H]3O[C@H](COS(=O)(=O)O)[C@@H](O[C@@H]4O[C@H](C(=O)O)[C@@H](O[C@H]5O[C@H](COS(=O)(=O)O)[C@@H](O)[C@H](O)[C@H]5NS(=O)(=O)O)[C@H](O)[C@H]4O)[C@H](OS(=O)(=O)O)[C@H]3NS(=O)(=O)O)[C@H](O)[C@H]2OS(=O)(=O)O)[C@H](O)[C@H]1NS(=O)(=O)O` [Fondaparinux sodium] was run?
Its value is inactive: 1.07.

How did the “cell-surface Lgr5 expression” value turn out when `O=C(Nc1ccccc1)OCC(CN1CCCCC1)OC(=O)Nc1ccccc1` (stereo not given) [Diperodon hydrochloride] was run?
The value was inactive: 0.89.

With `O=C(OCc1ccccc1)c1cccnc1` [Benzyl nicotinate] as the molecule, how does the “cell-surface Lgr5 expression” value read?
The value was inactive: 1.1.

Which “cell-surface Lgr5 expression” value does the source give for `CC(=O)Oc1cc(C)c(OC(C)=O)c2ccccc12` [Acetomenaphthone (2-Methyl-1,4-naphthalenediol diacetate)] here?
Its value is inactive: 1.12.

With `CCCCC1C(=O)N(c2ccccc2)N(c2ccccc2)C1=O` [Phenylbutazone] as the molecule, how does the “cell-surface Lgr5 expression” value read?
Its value is inactive: 1.11.

For `CCC(O)c1ccccc1` (stereo not given) [Phenylpropanol (1-phenyl 1-propanol)], which “cell-surface Lgr5 expression” value is on record?
The value was inactive: 1.21.

`CCCc1nc2c(C)cc(-c3nc4ccccc4n3C)cc2n1Cc1ccc(-c2ccccc2C(=O)O)cc1` [Telmisartan] was tested. Which “cell-surface Lgr5 expression” value did it give?
Its value is inactive: 0.522.

Which “cell-surface Lgr5 expression” value does the source give for `O=C1C=CC(=O)C(O)=C1` [Hydroxyquinone] here?
Its value is inactive: 0.824.

`CNCCCCOc1ccccc1Cc1ccccc1` [Bifemelane] was tested. Which “cell-surface Lgr5 expression” value did it give?
The value was inactive: 1.23.

With `CCCCOC(=O)c1ccc(O)cc1` [Butyl paraben (Butyl-4-hydroxybenzoate)] as the molecule, how does the “cell-surface Lgr5 expression” value read?
The value was inactive: 0.906.

`C#C[C@]1(OC(C)=O)CC[C@H]2[C@@H]3CCC4=CC(=O)CC[C@@H]4[C@H]3CC[C@@]21C` was tested. Which “cell-surface Lgr5 expression” value did it give?
The value was inactive: 1.13.

Which “cell-surface Lgr5 expression” value does the source give for `CC1=CC(=O)c2ccccc2C1=O` [Vitamin K3] here?
The value was inactive: 0.794.

For `CC1=CC(=O)c2ccccc2C1=O` [Menadione], which “cell-surface Lgr5 expression” value is on record?
The value was inactive: 0.928.
